For one substance, binding results are on record in patent US20090226370A1.

The chains behind the UniProt entries cited, without tags or fusion partners. Residues count along the entry.
UniProt P49747, residues 21-757: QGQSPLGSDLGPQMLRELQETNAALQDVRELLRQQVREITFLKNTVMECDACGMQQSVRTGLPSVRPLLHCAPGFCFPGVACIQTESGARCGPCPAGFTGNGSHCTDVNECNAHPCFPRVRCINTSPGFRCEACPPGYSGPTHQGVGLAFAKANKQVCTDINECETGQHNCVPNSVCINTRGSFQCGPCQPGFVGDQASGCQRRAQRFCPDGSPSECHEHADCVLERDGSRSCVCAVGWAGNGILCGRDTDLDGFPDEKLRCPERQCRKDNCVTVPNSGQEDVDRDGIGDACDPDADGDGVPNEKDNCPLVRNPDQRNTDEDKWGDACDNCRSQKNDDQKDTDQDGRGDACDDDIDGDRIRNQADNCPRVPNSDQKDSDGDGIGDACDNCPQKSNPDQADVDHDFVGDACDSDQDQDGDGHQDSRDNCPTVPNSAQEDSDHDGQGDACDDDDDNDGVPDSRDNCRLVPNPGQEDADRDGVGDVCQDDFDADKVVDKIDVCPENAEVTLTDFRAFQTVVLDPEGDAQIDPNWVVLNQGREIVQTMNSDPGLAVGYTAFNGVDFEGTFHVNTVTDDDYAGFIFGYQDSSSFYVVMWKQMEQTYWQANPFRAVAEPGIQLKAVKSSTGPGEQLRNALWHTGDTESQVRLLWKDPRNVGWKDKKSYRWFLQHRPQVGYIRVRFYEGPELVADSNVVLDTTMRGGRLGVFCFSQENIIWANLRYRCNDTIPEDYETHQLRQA
UniProt P28799, residues 18-593: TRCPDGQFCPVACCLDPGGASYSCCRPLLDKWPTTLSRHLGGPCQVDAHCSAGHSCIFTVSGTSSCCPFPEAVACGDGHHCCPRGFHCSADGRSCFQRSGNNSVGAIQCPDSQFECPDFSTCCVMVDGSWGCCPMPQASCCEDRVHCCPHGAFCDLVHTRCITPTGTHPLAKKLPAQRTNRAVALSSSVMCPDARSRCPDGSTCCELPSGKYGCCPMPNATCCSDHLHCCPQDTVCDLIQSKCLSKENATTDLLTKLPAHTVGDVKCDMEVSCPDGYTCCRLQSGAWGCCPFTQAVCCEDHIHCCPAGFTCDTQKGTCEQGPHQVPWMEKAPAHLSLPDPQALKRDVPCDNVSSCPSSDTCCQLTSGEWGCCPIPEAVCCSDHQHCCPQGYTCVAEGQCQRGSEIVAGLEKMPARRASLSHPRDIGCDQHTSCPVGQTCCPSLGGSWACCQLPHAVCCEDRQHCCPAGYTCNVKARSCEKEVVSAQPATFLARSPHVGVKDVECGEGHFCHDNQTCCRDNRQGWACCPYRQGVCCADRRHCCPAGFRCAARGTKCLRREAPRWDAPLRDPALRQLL

For test [1], the target named is COMP in cell extracts of isolated human chondrocytes (human) (UniProt P49747). Kind of test: co-immunoprecipitation from human chondrocyte extracts, anti-COMP antiserum, immunoblot with anti-GEP.
For test [2] the target is unchanged. Kind of test: co-immunoprecipitation from human chondrocyte extracts (FIG. 3C).

Results are given in words; binding and its absence hold for the method and conditions named. Binding seen in cells or lysates may run through a third protein. Some binding calls cover weakened binding; strength is not graded here.

Consider “GEP in cell extracts of isolated human chondrocytes (from UniProt P28799 18-593) (ligand)”, for which the binding result in test [1] and in test [2] was “binds” throughout.
